How the values were obtained:
Listeria monocytogenes [1] = conditions: MIC treatment, harvested at 15, 30, 45 and 60 minutes, 12% SDS-PAGE
Listeria monocytogenes [2] = conditions: MIC treatment for 60 minutes
Listeria monocytogenes [3] = conditions: MIC treatment for 60 minutes; remark: listed apart in the source

Cl [hydrochloric acid]
proteins remaining in bacterial ghosts (Listeria monocytogenes [1]): high molecular weight proteins mainly remained
Ct value compared with TE buffer solution (Listeria monocytogenes [2]): lower than that of a TE buffer solution
genomic DNA amplification in bacterial ghosts (real-time PCR) (Listeria monocytogenes [2]): DNA amplification was not observed at all
DNA remaining in bacterial ghosts (agarose gel) (Listeria monocytogenes [3]): no DNA remaining

[Na+].[OH-] [sodium hydroxide]
proteins remaining in bacterial ghosts (Listeria monocytogenes [1]): low molecular weight proteins mainly remained
DNA remaining in bacterial ghosts (agarose gel) (Listeria monocytogenes [3]): no DNA remaining
